From the supplement of paper PMC11060735 come the findings set out here.

“And” between values parts separate entries of the source, which are not always exact repeats. Equal entries are not always repeated. Structures can show the parent of a compound that is named as a salt. ± gives the standard deviation of the averaged measurements. Whole data set: some 1,800 compounds, median “GFP- (p16Ink4a-) cell count relative to negative-control wells” near 0.99, cut for the lowest 2% near 0.5. Some of the results follow.

This assay concerns mouse p16Ink4a+/- lung fibroblasts (INKBRITE, bleomycin-injured). As to the kind of experiment: GFP- (p16Ink4a-) cell count relative to negative-control wells (fold of vehicle); higher = more p16Ink4a- cells surviving. Conditions: 1 µM; 3 days.
`COc1ccc(NS(=O)(=O)c2ccc(N)cc2)nn1` [Sulfamethoxypyridazine] came in with a GFP- of 0.935.

`Clc1ccc2nsnc2c1NC1=NCCN1` [Tizanidine] gave a GFP- of 1.12. As for `CC1=C(C(=O)Nc2cc3c[nH]nc3cc2F)C(c2ccc(C(F)(F)F)cc2)CC(=O)N1` (stereo not given), the GFP- is 1.23. `CN(C)CCOC(C)(c1ccccc1)c1ccccn1` (stereo not given) [Doxylamine] returned a GFP- of 1.17. `CC(=O)Nc1ccc(C(=O)Nc2ccccc2N)cc1` [Tacedinaline]: the GFP- was determined as 0.749 ± 0.061. With `CN(C)CCCOc1nn(Cc2ccccc2)c2ccccc12` [Benzydamine], the GFP- was 0.535.

The molecule `CC(=O)Nc1ncc([N+](=O)[O-])s1` [Nithiamide] returned a GFP- of 1.03. `CNCC[C@@H](Oc1ccccc1C)c1ccccc1` [Atomoxetine] yielded a GFP- of 1.04. `CCC(=O)NCC[C@@H]1CCc2ccc3c(c21)CCO3` [Ramelteon] yielded a GFP- of 0.863. As to `CC(C)n1nc(-c2cc3cc(O)ccc3[nH]2)c2c(N)ncnc21`, the GFP- came to 0.613. Molecule `CCc1oc2ccccc2c1C(=O)c1cc(Br)c(O)c(Br)c1` [Benzbromarone] gave a GFP- of 0.921. Regarding `Cc1nc2n(c(=O)c1CCN1CCC(c3noc4cc(F)ccc34)CC1)CCCC2` [Risperidone], the GFP- was 0.982. `Clc1cccc(Cl)c1NC1=NCCN1` [Clonidine] returned a GFP- of 0.819.

Take `CN1[C@@H]2CC[C@H]1C[C@@H](OC(=O)C(O)c1ccccc1)C2` (stereo not given in full) [Homatropine Bromide]: the GFP- came out at 1.14. As to `CC(=O)Oc1cccc2c1C(=O)c1c(OC(C)=O)cc(C(=O)O)cc1C2=O` [Diacerin], the GFP- is 1.14.

`CC(C)OC(=O)C1=CN(C(=O)c2ccc(F)c(F)c2)CC(C)(C)c2c1[nH]c1ccccc21` had a GFP- of 1.04. On to `Oc1cc(O)cc(/C=C/c2ccc(O)c(O)c2)c1` [Piceatannol], for which the GFP- turned out to be 1.06. The molecule `Cc1ccc(NC(=O)C2(c3ccc4c(c3)OC(F)(F)O4)CC2)nc1-c1cccc(C(=O)O)c1` [Lumacaftor] showed a GFP- of 0.94. Molecule `CCCS(=O)c1ccc2[nH]c(NC(=O)OC)nc2c1` (stereo not given) [Albendazole Oxide] returned a GFP- of 1.

As for `COc1cc(Nc2ncc(F)c(Nc3ccc4c(n3)N(COP(=O)(O)O)C(=O)C(C)(C)O4)n2)cc(OC)c1OC` [Fostamatinib], the GFP- worked out at 0.771.

`Cc1c(CN2CCN(C(=O)[C@H](C)O)CC2)sc2c(N3CCOCC3)nc(-c3cnc(N)nc3)nc12` displayed a GFP- of 0.612.

For `CC(C)(C)Cn1c(N)nc2ccc(-c3[nH]c(C(C)(C)C)nc3-c3ccc(F)cc3)nc21`, the GFP- was found to be 0.974. To `CCCCC(F)(F)C(=O)CC[C@H]1[C@H](O)CC(=O)[C@@H]1CCCCCCC(=O)O` [Lubiprostone] belongs 0.931; to `NNc1nncc2ccccc12` [Hydralazine], 1.12; to `O=C1c2ccccc2C(=O)c2c1ccc(O)c2O` [Alizarin], 1.05. As to `COc1cc(/C=C/C(=O)/C=C(O)/C=C/c2ccc(O)c(OC)c2)ccc1O`, the GFP- came out at 1.11. Molecule `C[C@H](CCC(=O)O)[C@H]1CC[C@H]2[C@@H]3[C@H](O)C[C@@H]4C[C@H](O)CC[C@]4(C)[C@H]3CC[C@]12C` [Chenodeoxycholic Acid] came in with a GFP- of 1.05. Turning to `CCN(CC)CC#CCOC(=O)C(O)(c1ccccc1)C1CCCCC1` (stereo not given) [Oxybutynin], the GFP- came out at 0.971. `C=CC[C@@H]1/C=C(\C)C[C@H](C)C[C@H](OC)[C@H]2O[C@@](O)(C(=O)C(=O)N3CCCC[C@H]3C(=O)O[C@H](/C(C)=C/[C@@H]3CC[C@@H](O)[C@H](OC)C3)[C@H](C)[C@@H](O)CC1=O)[C@H](C)C[C@@H]2OC` [Tacrolimus] had a GFP- of 1.15. With `Cc1cc(=O)n(-c2ccccc2)n1C` [Antipyrine], the GFP- worked out at 0.992. The result for `O=C(O)CSCC(=O)NC1CCSC1=O` (stereo not given) [Erdosteine] reads 1.15; that for `COC(=O)N[C@H](C(=O)N[C@@H](Cc1ccccc1)[C@@H](O)CN(Cc1ccc(-c2ccccn2)cc1)NC(=O)[C@@H](NC(=O)OC)C(C)(C)C)C(C)(C)C` [Atazanavir], 1.08; that for `O=C(Nc1cccc(Cl)c1)Nc1ncc(CCNc2ncnc3ccsc23)s1` [SNS-314 Mesylate], 0.646 ± 0.14.

`Nc1c(CC(=O)O)cccc1C(=O)c1ccc(Br)cc1` [Bromfenac] gave a GFP- of 1.1. Regarding `CCOC(=O)[C@H](CCc1ccccc1)N[C@@H](C)C(=O)N1C(=O)N(C)C[C@H]1C(=O)O` [Imidapril HCl], the GFP- was found to be 1.01.

`O=C(O)COCCN1CCN(C(c2ccccc2)c2ccc(Cl)cc2)CC1` (stereo not given) [Cetirizine] had a GFP- of 1.06. The result for `CC(C)c1noc(N2CCC(COc3ccc(-c4ccc(S(C)(=O)=O)cc4)nc3)CC2)n1` reads 0.937; that for `CCCC(=O)O[C@]1(C(=O)COC(C)=O)CC[C@H]2[C@@H]3C[C@H](F)C4=CC(=O)C=C[C@]4(C)[C@@]3(F)[C@@H](O)C[C@@]21C` [Difluprednate], 0.76; that for `Cc1cc(C(=O)NOCCO)c(Nc2ccc(I)cc2F)n(C)c1=O`, 0.841. Consider `COCCOc1ccc2c(c1)ncn2-c1ccc2cccc(N3CCC(N)CC3)c2n1`, for which the GFP- is 0.879. In turn, `CC(C)c1onc(-c2c(Cl)cccc2Cl)c1COc1ccc(/C=C/c2cccc(C(=O)O)c2)c(Cl)c1` displayed a GFP- of 1.04. For the molecule `Cc1cc(Nc2ncc(Cl)c(Nc3ccccc3S(=O)(=O)C(C)C)n2)c(OC(C)C)cc1C1CCNCC1` [Ceritinib], the GFP- amounted to 1.03. For the molecule `OC[C@@H]1CC[C@H](n2cnc3c(O)ncnc32)O1` [Didanosine], the GFP- stood at 0.975.

`Cc1ccc(-n2nc(C(C)(C)C)cc2NC(=O)Nc2ccc(OCCN3CCOCC3)c3ccccc23)cc1` [Doramapimod] registered a GFP- of 1.07.

`CCCN(CCC)S(=O)(=O)c1ccc(C(=O)O)cc1` [Probenecid]: the GFP- came to 1.01. To `O=C1NC(=O)C(=Cc2ccc3c(c2)OC(F)(F)O3)S1` (stereo in doubt) belongs 1.03; to `Nc1nc(=O)n([C@@H]2CS[C@H](CO)O2)cc1F` [Emtricitabine], 1.07; to `C#C[C@]1(O)CC[C@H]2[C@@H]3CCC4=CC(=O)CC[C@@H]4[C@H]3CC[C@@]21C` [Norethisterone], 0.87. In turn, `CN1CCC(=C2c3ccccc3CC(=O)c3sccc32)CC1` [Ketotifen] had a GFP- of 0.992.

On to `CN1CCN(c2ccc3[nH]c(-c4c(O)nc5cccc(F)c5c4N)nc3c2)CC1` [Dovitinib], for which the GFP- is 0.938 and 0.849. Take `Cc1csc(-c2nnc(Nc3ccc(Oc4ncccc4-c4ccnc(N)n4)cc3)c3ccccc23)c1`: the GFP- came to 0.643 ± 0.16. In turn, `CNC(=O)c1ccc(N2C(=S)N(c3ccc(C#N)c(C(F)(F)F)c3)C(=O)C2(C)C)cc1F` [Enzalutamide] had a GFP- of 1.11.

In turn, `Nc1nc(O)ncc1F` [Flucytosine, 5-fluorocytosine] returned a GFP- of 0.76. To `O=C1[C@H](Cc2ccc(O)cc2)N2C(=O)CCN(C(=O)NCc3ccccc3)[C@H]2CN1Cc1cccc2ccccc12` belongs 0.922. Consider `COc1ccccc1N1CCN(CC(O)COc2cccc3ccccc23)CC1` (stereo not given) [Naftopidil Dihydrochloride, Naftopidil], for which the GFP- was 1.07 and 1.02. `CN1CC[C@H](c2c(O)cc(O)c3c(=O)cc(-c4ccccc4Cl)oc23)[C@H](O)C1` [Flavopiridol] came in with a GFP- of 0.326. For the molecule `COc1cc2c(Oc3ccc4[nH]c(C)cc4c3F)ncnc2cc1OCCCN1CCCC1`, the GFP- came to 0.845.

As for `O=C(O)C1=CO[C@@H](O[C@@H]2O[C@H](CO)[C@@H](O)[C@H](O)[C@H]2O)[C@@H]2C(CO)=CC[C@H]12` [Geniposidic acid], the GFP- turned out to be 1.05. `Cc1ccc([N+](=O)[O-])cc1S(=O)(=O)N(C)/N=C/c1cnc2ccc(Br)cn12` displayed a GFP- of 0.385. In turn, `CC(C)Cn1cnc2c(N)nc3ccccc3c21` [Imiquimod] gave a GFP- of 1.17. As to `COc1cc2ncnc(Nc3ccc(F)c(Cl)c3)c2cc1NC(=O)/C=C/CN1CCCCC1` [Dacomitinib], the GFP- stood at 0.95. As for `O=C(COc1cccc2c(O)nccc12)c1ccccc1`, the GFP- was found to be 0.869 ± 0.041.

As for `Clc1ccc(COC(Cn2ccnc2)c2ccc(Cl)cc2Cl)c(Cl)c1` (stereo not given) [Miconazole], the GFP- was 1.17 and 1.09.

`COc1ccc(CNc2nc(N3CCC[C@H]3CO)ncc2C(=O)NCc2ncccn2)cc1Cl` [Avanafil] showed a GFP- of 1.06. In turn, `NC1(C(=O)N[C@@H](CCO)c2ccc(Cl)cc2)CCN(c2ncnc3[nH]ccc23)CC1` displayed a GFP- of 0.935. In turn, `CC(C)C[C@@H](C=O)NC(=O)[C@H](CC(C)C)NC(=O)[C@H](CC(C)C)NC(=O)OCc1ccccc1` came in with a GFP- of 0.302.

`CCC(=O)c1c(O)cc(O)cc1O` [Flopropione] displayed a GFP- of 0.804. `N=C(N)c1ccc(OCCCCCOc2ccc(C(=N)N)cc2)cc1` [Pentamidine] showed a GFP- of 0.926. Turning to `CN(Cc1ccc(C(C)(C)C)cc1)Cc1cccc2ccccc12` [Butenafine], the GFP- was 1.04.

`C#C[C@]1(O)CC[C@H]2[C@@H]3CCc4cc(OC)ccc4[C@H]3CC[C@@]21C` [Mestranol] showed a GFP- of 1.15. Molecule `C[C@H]1O[C@H](O[C@H]2[C@H](O)[C@@H](O)[C@@H](O[C@H]3[C@H](O)[C@@H](O)[C@H](O)O[C@@H]3CO)O[C@@H]2CO)[C@H](O)[C@@H](O)[C@@H]1N[C@H]1C=C(CO)[C@@H](O)[C@H](O)[C@H]1O` [Acarbose] returned a GFP- of 1.04. On to `CCOC(=O)n1ccn(C)c1=S` [Carbimazole], for which the GFP- turned out to be 1.04. Regarding `COc1ccc(C(C)=O)c(O)c1` [Paeonol], the GFP- is 1.18. The molecule `CCOCC(O)COc1ccc(NC(=O)CC[S+](C)C)cc1` (stereo not given) [Suplatast Tosylate] yielded a GFP- of 0.935. Molecule `N[C@H]1CN(c2c(F)cc3c(=O)c(C(=O)O)cn([C@@H]4C[C@@H]4F)c3c2Cl)CC12CC2` [Sitafloxacin Hydrate] returned a GFP- of 0.921. Regarding `CN(NC(=O)CC(=O)NN(C)C(=S)c1ccccc1)C(=S)c1ccccc1` [Elesclomol], the GFP- is 0.277.

`Cc1nnc(NS(=O)(=O)c2ccc(N)cc2)s1` [Sulfamethizole] came in with a GFP- of 1.03.

Consider `Sc1ncnc2[nH]cnc12` [Mercaptopurine], for which the GFP- came out at 1.05. `CNC(=O)c1cccc(-c2ccc3c(N4CCOC[C@@H]4C)nc(N4CCOC[C@@H]4C)nc3n2)c1` registered a GFP- of 0.62. Regarding `CC(=O)O[C@]1(C(C)=O)CC[C@H]2[C@@H]3C=C(Cl)C4=CC(=O)[C@@H]5C[C@@H]5[C@]4(C)[C@H]3CC[C@@]21C` [Cyproterone Acetate], the GFP- stood at 1.14.
